# Results taken from PubChem BioAssay AID256 (DTP/NCI, 2004).
# The list is a part of this screen's results and no random one: it gathers tests that were run many times, whatever their T/C, doses with no T/C, and many T/C values between a quarter and a half above the control. Other doses and runs of a compound stand elsewhere. T/C is the treated group as % of the vehicle group. Some doses have a count of surviving animals in place of a T/C: the source holds a T/C of zero for them, seemingly a mark for toxic or unscored doses. Some survivor counts are full or nearly so, which does not show that the dose was tolerated: the source hardly ever lists a survival T/C far under the control, and the zero likely stands for such cases as well. Survivors were counted at the toxicity check, usually on the fifth day, unless a day is given; later deaths do not show. Schedule codes are those of the source, taken here to give the interval after Q, in days (D) or hours (H), and the number of doses after X. Some entries hold several experiments; the values are given in rising order. Some structures stand for samples that the source files as different forms (salt, stereo form or complex); doses refer to the form tested. Where survival is the endpoint, this PubChem deposit counts one and a half times the control or more as active, and values a quarter to a half above the control carry no call in these data; other NCI protocols may use other cut-offs. Some T/C values are followed by the survivors on the day toxicity was checked, most often the fifth; without a count, all were alive then. Counts like (3×) give the number of equal values in this list.
# Test system: CD2F1 mice, L1210 leukemia ip, survival T/C
# Experiment: NCI In Vivo Anticancer Drug Screen. Data for tumor model L1210 Leukemia (intraperitoneal) in CD2F1 (CDF1) mice
# Settings: higher T/C = longer survival
# In short: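 Vehicle-treated tumor-bearing mice served as controls (C) for compound-treated mice (T). Reported figure is T divided by C.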
# [1] = T/C endpoint: mean survival time, dose: 25.0 mg/kg/injection, schedule: Q01DX009 (ip), vehicle: saline
# [2] = T/C endpoint: mean survival time, dose: 400.0 mg/kg/injection, schedule: Q01DX001 (ip), vehicle: saline with Tween-80
# [3] = T/C endpoint: mean survival time, dose: 400.0 mg/kg/injection, schedule: Q04DX003 (ip), vehicle: saline with Tween-80
# [4] = T/C endpoint: mean survival time, dose: 200.0 mg/kg/injection, schedule: Q04DX003 (ip), vehicle: saline
# [5] = T/C endpoint: mean survival time, dose: 200.0 mg/kg/injection, schedule: Q04DX003 (ip), vehicle: saline with Tween-80
# [6] = T/C endpoint: mean survival time, dose: 200.0 mg/kg/injection, schedule: Q04DX002 (ip), vehicle: saline with Tween-80
smiles,measurement,setting,value
CCC1(O)C(=O)OCc2c1cc1n(c2=O)Cc2cc3ccc(N)cc3nc2-1 (stereo unspecified),T/C,"T/C endpoint: median survival time, dose: 10.0 mg/kg/injection, schedule: Q04DX002 (ip), vehicle: saline with Tween-80",125 % of control
same,T/C,"T/C endpoint: median survival time, dose: 20.0 mg/kg/injection, schedule: Q04DX002 (ip), vehicle: saline with Tween-80",131 % of control
same,T/C,"T/C endpoint: median survival time, dose: 40.0 mg/kg/injection, schedule: Q04DX002 (ip), vehicle: saline with Tween-80",147 % of control
same,T/C,"T/C endpoint: median survival time, dose: 80.0 mg/kg/injection, schedule: Q04DX002 (ip), vehicle: saline with Tween-80",125 % of control
Cc1c2cc[n+](CCN3CCCCC3)cc2c(C)c2c1[nH]c1ccc(O)cc12,T/C,"T/C endpoint: mean survival time, dose: 1.56 mg/kg/injection, schedule: Q01DX009 (ip), vehicle: saline",136 % of control [5 of 6 alive]
same,T/C,"T/C endpoint: mean survival time, dose: 3.12 mg/kg/injection, schedule: Q01DX009 (ip), vehicle: saline",143 % of control
same,T/C,"T/C endpoint: mean survival time, dose: 3.12 mg/kg/injection, schedule: Q01DX009 (ip), vehicle: suspension in saline",132 % of control
same,T/C,"T/C endpoint: mean survival time, dose: 6.25 mg/kg/injection, schedule: Q01DX009 (ip), vehicle: saline",141 % of control
same,T/C,"T/C endpoint: mean survival time, dose: 6.25 mg/kg/injection, schedule: Q01DX009 (ip), vehicle: suspension in saline",137 % of control
same,T/C,[1],129 % of control
same,T/C,"T/C endpoint: mean survival time, dose: 25.0 mg/kg/injection, schedule: Q01DX009 (ip), vehicle: suspension in saline",126 % of control
C/C(=N/NC(=O)CC#N)c1ccccc1,survivor count,"T/C endpoint: mean survival time, dose: 100.0 mg/kg/injection, schedule: Q01DX009 (ip), vehicle: saline with Tween-80",3 of 3
same,survivor count,"T/C endpoint: mean survival time, dose: 200.0 mg/kg/injection, schedule: Q01DX009 (ip), vehicle: saline with Tween-80",0 of 3
same,survivor count,"T/C endpoint: mean survival time, dose: 400.0 mg/kg/injection, schedule: Q01DX009 (ip), vehicle: saline with Tween-80",0 of 3
CN(C)N=Nc1cccc([N+](=O)[O-])c1,survivor count,"T/C endpoint: mean survival time, dose: 177.0 mg/kg/injection, schedule: Q01DX009 (ip), vehicle: Klucel (hydroxypropylcellulose) (HPC)",3 of 6
same,survivor count,"T/C endpoint: mean survival time, dose: 266.0 mg/kg/injection, schedule: Q01DX009 (ip), vehicle: Klucel (hydroxypropylcellulose) (HPC)",0 of 6
same,survivor count,"T/C endpoint: mean survival time, dose: 400.0 mg/kg/injection, schedule: Q01DX009 (ip), vehicle: Klucel (hydroxypropylcellulose) (HPC)",0 of 6
CCOC(OCC)C(=O)OCC(=O)[C@]1(O)Cc2c(O)c3c(c(O)c2[C@@H](OC2CC(N)C(O)C(C)O2)C1)C(=O)c1c(OC)cccc1C3=O (stereo partly specified),T/C,"T/C endpoint: mean survival time, dose: 0.25 mg/kg/injection, schedule: Q01DX009 (ip), vehicle: saline",145 % of control
same,T/C,"T/C endpoint: mean survival time, dose: 0.5 mg/kg/injection, schedule: Q01DX009 (ip), vehicle: saline",132 and 144 % of control [9 of 10 alive]
same,T/C,"T/C endpoint: mean survival time, dose: 1.0 mg/kg/injection, schedule: Q01DX009 (ip), vehicle: saline, evaluated on day 30",129 % of control [4 of 6 alive]
same,T/C,"T/C endpoint: mean survival time, dose: 1.0 mg/kg/injection, schedule: Q01DX009 (ip), vehicle: saline, evaluated on day 45",127 % of control
same,T/C,"T/C endpoint: mean survival time, dose: 2.0 mg/kg/injection, schedule: Q01DX009 (ip), vehicle: saline, evaluated on day 30",131 % of control [5 of 6 alive]
same,T/C,"T/C endpoint: mean survival time, dose: 2.0 mg/kg/injection, schedule: Q01DX009 (ip), vehicle: saline, evaluated on day 45",143 % of control
same,T/C,"T/C endpoint: mean survival time, dose: 4.0 mg/kg/injection, schedule: Q01DX009 (ip), vehicle: saline, evaluated on day 30",133 % of control [9 of 10 alive]
same,T/C,"T/C endpoint: mean survival time, dose: 4.0 mg/kg/injection, schedule: Q01DX009 (ip), vehicle: saline, evaluated on day 45",136 % of control
same,survivor count,"T/C endpoint: mean survival time, dose: 8.0 mg/kg/injection, schedule: Q01DX009 (ip), vehicle: saline","6 of 8, 9 of 10, 6 of 6"
C/C(=N/O)c1cc(CN(C)C)oc1C,survivor count,[2],3 of 6
COC(=O)Nc1cc2c3c(c1)CCCN3CCC2,survivor count,[3],4 of 6
Clc1nnc(-c2ccccc2)c(-c2ccccc2)n1,survivor count,[4],6 of 6
same,survivor count,"T/C endpoint: mean survival time, dose: 400.0 mg/kg/injection, schedule: Q04DX003 (ip), vehicle: saline",1 of 6
[N-]=[N+]=C1N=CN=C1c1ncnn1Cc1ccccc1,survivor count,"T/C endpoint: mean survival time, dose: 100.0 mg/kg/injection, schedule: Q01DX001 (ip), vehicle: other",0 of 6
same,survivor count,"T/C endpoint: mean survival time, dose: 200.0 mg/kg/injection, schedule: Q01DX001 (ip), vehicle: other",0 of 6
same,survivor count,"T/C endpoint: mean survival time, dose: 400.0 mg/kg/injection, schedule: Q01DX001 (ip), vehicle: other",0 of 6
CCCCCCCC[n+]1cccc(C(=O)c2ccccc2)c1,survivor count,"T/C endpoint: mean survival time, dose: 150.0 mg/kg/injection, schedule: Q01DX001 (ip), vehicle: saline",0 of 6
same,survivor count,"T/C endpoint: mean survival time, dose: 300.0 mg/kg/injection, schedule: Q01DX001 (ip), vehicle: saline",0 of 6
CC(C)=NNCCO,survivor count,"T/C endpoint: mean survival time, dose: 50.0 mg/kg/injection, schedule: Q01DX009 (ip), vehicle: saline",0 of 5
CC(=O)N1CCC2(CC1)SSC1(CCN(C(C)=O)CC1)S2,survivor count,"T/C endpoint: mean survival time, dose: 100.0 mg/kg/injection, schedule: Q04DX003 (ip), vehicle: saline with Tween-80",0 of 6
same,survivor count,[5],0 of 6
same,survivor count,[3],0 of 6
CCC1(OC(=O)CNC)C(=O)OCc2c1cc1n(c2=O)Cc2cc3ccccc3nc2-1 (stereo unspecified),T/C,"T/C endpoint: median survival time, dose: 7.5 mg/kg/injection, schedule: Q04DX002 (ip), vehicle: saline",127 % of control
same,T/C,"T/C endpoint: median survival time, dose: 30.0 mg/kg/injection, schedule: Q04DX002 (ip), vehicle: saline",127 % of control
same,survivor count,"T/C endpoint: median survival time, dose: 60.0 mg/kg/injection, schedule: Q04DX002 (ip), vehicle: saline",6 of 6
C=CCSc1nc(N)nc2nc[nH]c12,survivor count,"T/C endpoint: mean survival time, dose: 400.0 mg/kg/injection, schedule: Q04DX003 (ip), vehicle: saline sonified",4 of 6
CCCOC(=O)c1ccc(NC(=O)Nc2ccc(C(=O)OCC)cc2)cc1,T/C,"T/C endpoint: mean survival time, dose: 100.0 mg/kg/injection, schedule: Q04DX002 (ip), vehicle: saline with Tween-80","92, 94, 95 % of control (2×)"
same,survivor count,"T/C endpoint: mean survival time, dose: 200.0 mg/kg/injection, schedule: Q01DX001 (ip), vehicle: saline with Tween-80",6 of 6
same,survivor count,[6],3 of 3
same,survivor count,[5],6 of 6
same,survivor count,[2],6 of 6
same,survivor count,"T/C endpoint: mean survival time, dose: 400.0 mg/kg/injection, schedule: Q04DX002 (ip), vehicle: saline with Tween-80",3 of 3
CNC/C(C)=C/Br,survivor count,"T/C endpoint: mean survival time, dose: 100.0 mg/kg/injection, schedule: Q01DX009 (ip), vehicle: acetone",2 of 6
same,survivor count,"T/C endpoint: mean survival time, dose: 200.0 mg/kg/injection, schedule: Q01DX009 (ip), vehicle: acetone",0 of 6
same,survivor count,"T/C endpoint: mean survival time, dose: 400.0 mg/kg/injection, schedule: Q04DX003 (ip), vehicle: acetone",1 of 6
CCCOC(=O)COc1ccc(F)cc1F,survivor count,[6],3 of 3
CCc1c2cc(OC)c(OC)cc2cc2c3cc(OC)c(OC)cc3cc[n+]12 (tested in a mixture with another compound),T/C,"T/C endpoint: mean survival time, dose: 22.0 mg/kg/injection, schedule: Q01DX009 (ip), vehicle: saline with Tween-80",128 % of control
same,T/C,[1],125 % of control
same,T/C,"T/C endpoint: mean survival time, dose: 50.0 mg/kg/injection, schedule: Q01DX009 (ip), vehicle: saline with Tween-80",134 % of control
same,T/C,"T/C endpoint: mean survival time, dose: 132.0 mg/kg/injection, schedule: Q04DX003 (ip), vehicle: saline",129 % of control
same,survivor count,"T/C endpoint: mean survival time, dose: 150.0 mg/kg/injection, schedule: Q01DX009 (ip), vehicle: saline",6 of 6
same,survivor count,"T/C endpoint: mean survival time, dose: 200.0 mg/kg/injection, schedule: Q01DX009 (ip), vehicle: saline",6 of 6
same,T/C,[4],134 and 135 % of control
same,T/C,"T/C endpoint: mean survival time, dose: 300.0 mg/kg/injection, schedule: Q04DX003 (ip), vehicle: saline",146 % of control
